The target in the experiment is T1, Flag-tagged SHARPIN (human), Q9H0F6.
T1 chain: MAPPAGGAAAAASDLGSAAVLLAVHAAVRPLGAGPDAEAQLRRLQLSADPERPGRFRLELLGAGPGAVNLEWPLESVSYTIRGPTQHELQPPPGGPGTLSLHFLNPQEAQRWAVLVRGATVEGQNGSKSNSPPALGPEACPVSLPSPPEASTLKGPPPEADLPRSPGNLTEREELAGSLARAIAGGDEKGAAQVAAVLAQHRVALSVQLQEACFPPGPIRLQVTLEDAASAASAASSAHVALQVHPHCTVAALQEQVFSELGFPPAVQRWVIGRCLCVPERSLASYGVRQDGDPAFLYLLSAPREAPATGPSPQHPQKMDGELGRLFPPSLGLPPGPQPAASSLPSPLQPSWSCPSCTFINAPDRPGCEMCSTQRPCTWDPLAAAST
In words: Flag IP of Flag-SHARPIN from WM115 lysate, on-bead tryptic digestion, LC/MS-MS. The note with it: remark: other sources report otherwise.

These are yes or no findings as the source states them, for the method shown. Some entries that bind do so weakly or less than the wild type. Tags and fused reporters may be left off the sequences shown.

B1: RBCK1, Q9BYM8 1-510 (protein, human, UniProt Q9BYM8 1-510, looked up)
chain: MDEKTKKAEEMALSLTRAVAGGDEQVAMKCAIWLAEQRVPLSVQLKPEVSPTQDIRLWVSVEDAQMHTVTIWLTVRPDMTVASLKDMVFLDYGFPPVLQQWVIGQRLARDQETLHSHGVRQNGDSAYLYLLSARNTSLNPQELQRERQLRMLEDLGFKDLTLQPRGPLEPGPPKPGVPQEPGRGQPDAVPEPPPVGWQCPGCTFINKPTRPGCEMCCRARPEAYQVPASYQPDEEERARLAGEEEALRQYQQRKQQQQEGNYLQHVQLDQRSLVLNTEPAECPVCYSVLAPGEAVVLRECLHTFCRECLQGTIRNSQEAEVSCPFIDNTYSCSGKLLEREIKALLTPEDYQRFLDLGISIAENRSAFSYHCKTPDCKGWCFFEDDVNEFTCPVCFHVNCLLCKAIHEQMNCKEYQEDLALRAQNDVAARQTTEMLKVMLQQGEAMRCPQCQIVVQKKDGCDWIRCTVCHTEICWVTKGPRWGPGGPGDTSGGCRCRVNGIPCHPSCQNCH
For B1, the binding entry is given as “binds”.
